This assay deals with BSA (bovine) (UniProt P02769). As to the kind of experiment: solid phase binding assay: PGRN coated at the concentration on the x axis (µg/ml), biotin-labeled BSA added, streptavidin-HRP, OD 450 nm.

By UniProt entry, the sequences of proteins in these tests, tags left out. Where a name states a change or a piece, a line headed by the entry shows the natural chain unless it says otherwise. Residues count along the entry.
UniProt P02769, residues 25-607: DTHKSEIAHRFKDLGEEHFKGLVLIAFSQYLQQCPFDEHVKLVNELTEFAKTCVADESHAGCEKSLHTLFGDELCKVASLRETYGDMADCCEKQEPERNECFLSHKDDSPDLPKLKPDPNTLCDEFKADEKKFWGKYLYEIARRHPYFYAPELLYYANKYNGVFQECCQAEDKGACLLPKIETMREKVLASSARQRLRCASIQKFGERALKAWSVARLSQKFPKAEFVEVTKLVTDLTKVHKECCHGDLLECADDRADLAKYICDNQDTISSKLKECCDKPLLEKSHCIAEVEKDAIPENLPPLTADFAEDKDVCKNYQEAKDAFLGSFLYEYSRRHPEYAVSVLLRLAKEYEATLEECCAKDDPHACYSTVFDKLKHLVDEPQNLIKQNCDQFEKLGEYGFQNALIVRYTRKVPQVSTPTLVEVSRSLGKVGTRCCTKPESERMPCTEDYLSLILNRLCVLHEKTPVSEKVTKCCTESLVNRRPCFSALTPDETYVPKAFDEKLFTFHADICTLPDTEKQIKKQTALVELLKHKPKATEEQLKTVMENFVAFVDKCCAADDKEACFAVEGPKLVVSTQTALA
UniProt P28799: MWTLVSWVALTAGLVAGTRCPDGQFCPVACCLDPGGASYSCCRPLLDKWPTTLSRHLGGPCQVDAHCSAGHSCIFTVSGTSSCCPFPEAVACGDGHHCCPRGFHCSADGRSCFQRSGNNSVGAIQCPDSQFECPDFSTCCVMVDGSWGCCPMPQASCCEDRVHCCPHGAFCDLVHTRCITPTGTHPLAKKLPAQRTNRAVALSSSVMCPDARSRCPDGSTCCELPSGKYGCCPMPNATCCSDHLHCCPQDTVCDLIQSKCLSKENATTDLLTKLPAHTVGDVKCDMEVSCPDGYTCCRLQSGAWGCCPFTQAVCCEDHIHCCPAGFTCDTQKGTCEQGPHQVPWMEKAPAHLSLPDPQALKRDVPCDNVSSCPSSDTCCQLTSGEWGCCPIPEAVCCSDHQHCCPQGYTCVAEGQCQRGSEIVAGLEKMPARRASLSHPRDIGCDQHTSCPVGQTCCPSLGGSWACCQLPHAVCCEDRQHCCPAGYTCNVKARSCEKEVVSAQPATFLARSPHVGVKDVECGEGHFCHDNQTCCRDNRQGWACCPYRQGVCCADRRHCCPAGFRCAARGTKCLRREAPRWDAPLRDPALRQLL

Results are given in words; binding and its absence hold for the method and conditions named.

Regarding “Recombinant His-tag PGRN protein (recombinant human progranulin) (from UniProt P28799 18-593) (ligand)”, the binding result was “no binding (tested: 5 µg/ml)”.

(Values after patent US20170049855A1.)
